# In all, about 330,000 compounds went through this assay and about 7,700 (2.3%) were called active. This list was built around the results that the source calls inconclusive (neither active nor inactive); the mix of calls is not that of the screen. Calls come from the whole dose curve; as a rule, active = well fitted inhibition curve with a large enough effect; inconclusive = small, poorly fitted or top-dose-only effect, or effect the other way; inactive = flat fitted curve, though single readings scatter. Where the call is inconclusive, the potency comes from a doubtful curve fit.
# Assay: qHTS screen for small molecules that inhibit ELG1-dependent DNA repair in human embryonic kidney (HEK293T) cells expressing luciferase-tagged ELG1; note: nearly all actives have a fitted effect of over 55% in size
# Conditions: HEK293T ELG1-luciferase reporter, luminescence, 16 h, DNA damage induced by 5-fluorouridine; series mostly up to 46.1 µM
# In short: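 Cells (2,000 per well) received 5-fluorouridine plus test compound or DMSO and were incubated 16 hr at 37 °C, 5% CO2. Luciferase activity was read by luminescence 30 min after ONE-Glo addition; signal suppression marked inhibition of damage-induced ELG1 function.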
# Potency is the fitted concentration of half-maximal effect.
row,SMILES,Potency
1,Cn1c(=O)c([N+](=O)[O-])c(N2CCSCC2)c2ccccc21,"inconclusive: 29.1 µM [inhibitor, single point]"
2,Cc1cc(C)cc(C(=O)NC(CC(N)=O)c2ccc(NCC3CC3)c([N+](=O)[O-])c2)c1 (configuration not stated),"inconclusive: 3.66 µM [activator, single point]"
3,C(=N\Nc1nc2ccccc2[nH]1)/c1cccc2cccnc12,"inconclusive: 29.1 µM [activator, single point]"
4,COCCNc1nc(-c2ccc(OC)cc2)c(-c2ccc(OC)cc2)s1,active: 20.6 µM
5,NC(=O)c1cc(Cl)ccc1OCC(=O)Nc1ccc2c(c1)OCO2,"inconclusive: 1.64 µM [activator, partial curve, poor fit]"
6,COc1ccc(/C=N\NC(=O)c2cc3c(ccc4ccccc43)o2)cc1O,"inconclusive: 9.2 µM [inhibitor, partial curve]"
7,N#CC(=C1CCCC1)c1nc(-c2ccc(Cl)cc2)cs1,"inconclusive: 14.6 µM [activator, partial curve]"
8,CN(C(=O)Cn1cnc2sccc2c1=O)C1CCCCC1,inactive
9,Cc1ccc(/C=N/Nc2ccc(F)cc2F)s1,"inconclusive: 11.6 µM [activator, partial curve, poor fit]"
10,O=C(Nc1cccc(S(=O)(=O)N2CCOCC2)c1)c1cn(-c2ccccc2)nc1-c1ccccc1,"inconclusive: 18.4 µM [inhibitor, partial curve]"
11,CCOc1ccc2nc(SCc3ccc(OC)cc3)sc2c1,"inconclusive: 16.4 µM [activator, single point]"
12,O=C(O)c1ccc(N/N=C/c2ccc(-c3cccc(Cl)c3)o2)cc1,"inconclusive: 0.92 µM [activator, full curve]"
13,Cc1ccc(/C=N/NC(=O)CSc2nc3ccccc3o2)cc1,"inconclusive: 18.4 µM [activator, partial curve]"
14,CCOc1ccc(-n2c(SCC(=O)Nc3cc(C)on3)nc3c([nH]c4ccccc43)c2=O)cc1,"inconclusive: 11.6 µM [inhibitor, partial curve, poor fit]"
15,Cc1ccc(-c2nc(-c3ccccn3)no2)cc1[N+](=O)[O-],"inconclusive: 1.03 µM [activator, full curve]"
16,COc1ccc(N(C)S(=O)(=O)c2cccc(C(=O)OCC(=O)Nc3sc4c(c3C#N)CCCCC4)c2)cc1,"inconclusive: 7.31 µM [activator, partial curve, poor fit]"
17,COc1ccc(NC(=O)CSc2n[nH]c(N)n2)c([N+](=O)[O-])c1,inactive
18,O=C(NCCc1ccc(F)cc1)c1cc([N+](=O)[O-])ccc1N1CCOCC1,inactive
19,CC1Cc2cc(/C(O)=C3/C(=O)C(=O)N(CCCn4ccnc4)C3c3ccco3)ccc2O1 (configuration not stated),"inconclusive: 20.6 µM [activator, partial curve]"
20,O=C(CCCc1ccccc1)NCc1ccc(Cl)cc1,"inconclusive: 2.82 µM [activator, single point]"
21,COC(=O)CCN(C(=O)C1C2CC3CC(C2)CC1C3)c1ccccn1 (configuration not stated),inactive
22,[O-]/[N+](=C\c1ccncc1)c1ccc(Br)cc1,"inconclusive: 14.6 µM [activator, partial curve]"
23,O=C(CCc1ccccc1)NC(=S)Nc1ccccc1Br,"inconclusive: 32.6 µM [activator, partial curve, poor fit]"

row,SMILES,Potency
1,O=C(O)c1cc(-c2ccc(Cl)s2)[nH]n1,inactive
2,COc1ccc(OC)c(C2C(C(=O)Nc3nc4ccccc4s3)=C(C)NC3=C2C(=O)CCC3)c1 (configuration not stated),"inconclusive: 10 µM [inhibitor, partial curve, poor fit]"
3,O=C(O)/C=C/c1cn(-c2ccccc2)nc1-c1cc2ccccc2oc1=O,"inconclusive: 20.6 µM [activator, partial curve, poor fit]"
4,COc1cc(C)c(NC(=O)COc2ccc3c(c2)OCO3)cc1C,"inconclusive: 9.2 µM [activator, partial curve, poor fit]"
5,O=C(CN1CCN(c2ccccn2)CC1)Nc1cccc(F)c1,inactive
6,COc1cccc(CNC(=O)c2cccc(NC(=O)CC3SC(N4CCCCC4)=NC3=O)c2)c1 (configuration not stated),"inconclusive: 29.1 µM [inhibitor, single point]"
7,Cc1ccc(C(=O)N=c2sccn2C)cc1S(=O)(=O)N1CCOCC1,"inconclusive: 29.1 µM [activator, single point]"
8,O=C(Cc1ccc(Cl)c(Cl)c1)NNC(=S)NCC1CCCO1 (configuration not stated),inactive
9,Cc1ccc(CC(=O)CCc2ccccc2)cc1,"inconclusive: 14.1 µM [activator, single point]"
10,Cc1ccc(Sc2cnn(-c3ccccc3)c(=O)c2Cl)cc1,inactive
11,Cc1ccc(C)c(SCC(=O)Nc2ccc(C)c(S(=O)(=O)N3CCOCC3)c2)c1,"inconclusive: 16.4 µM [inhibitor, single point]"
12,Cc1cccc(C(=O)NC(C(=O)Nc2nc(-c3ccccn3)cs2)C(C)C)c1 (configuration not stated),active: 2.91 µM
13,Cc1cccc(N/N=C(\C#N)S(=O)(=O)C(C)(C)C)c1,"inconclusive: 29.1 µM [inhibitor, single point]"
14,CSCC[C@H](NC(=O)OC(C)(C)C)C(=O)N/N=C/c1cccc2cccnc12,"inconclusive: 29.1 µM [inhibitor, single point]"
15,O=C(NCc1ccc2c(c1)OCO2)c1ccccn1,"inconclusive: 18.4 µM [activator, single point]"
16,CC1CCCN(S(=O)(=O)c2ccc(C(=O)Nc3nnc(-c4ccccn4)o3)cc2)C1 (configuration not stated),"inconclusive: 18.3 µM [inhibitor, partial curve, poor fit]"
17,Cc1ccccc1-c1ccccc1N,"inconclusive: 18.4 µM [activator, partial curve, poor fit]"
18,COc1ccccc1N1CCN(C2CCCN(C(=O)Cn3cccn3)C2)CC1 (configuration not stated),inactive
19,CCOc1ccc(NC(=O)NCCN2CCN(c3cccc(C)c3C)CC2)cc1,"inconclusive: 18.3 µM [inhibitor, partial curve, poor fit]"
20,CCn1c(C)c(C(C)=O)c(SC)nc1=S,"inconclusive: 14.6 µM [inhibitor, partial curve]"
21,Cc1ccc(Cl)cc1NC(=S)N(Cc1cccs1)C1CCCC1,inactive
22,CC1(C)Cc2nc3oc4c(=O)n(CC(=O)Nc5cccc(Cl)c5)cnc4c3cc2CO1,"inconclusive: 32.6 µM [activator, partial curve, poor fit]"
23,COc1cc(OC)cc(-c2c(-c3ccc(F)cc3)c3cc(Br)ccc3n2C)c1,inactive

# Entries shown so far that contain fluorine (4):
row,SMILES,Potency
9,Cc1ccc(/C=N/Nc2ccc(F)cc2F)s1,"inconclusive: 11.6 µM [activator, partial curve, poor fit]"
18,O=C(NCCc1ccc(F)cc1)c1cc([N+](=O)[O-])ccc1N1CCOCC1,inactive
5,O=C(CN1CCN(c2ccccn2)CC1)Nc1cccc(F)c1,inactive
23,COc1cc(OC)cc(-c2c(-c3ccc(F)cc3)c3cc(Br)ccc3n2C)c1,inactive

# Pulled by structure from the entries so far (two):
row,SMILES,Potency
21,Cc1ccc(Cl)cc1NC(=S)N(Cc1cccs1)C1CCCC1,inactive
10,Cc1ccc(Sc2cnn(-c3ccccc3)c(=O)c2Cl)cc1,inactive

# The results go on.

row,SMILES,Potency
1,Cc1ccc(C(=O)N2CCc3ccccc32)cc1,"inconclusive: 16.4 µM [activator, partial curve]"
2,CC1C2C(c3ccccc3)N(C)C(=O)N(C)C2N(C)C(=O)N1C (configuration not stated),inactive
3,CC(=O)Nc1nc(-c2ccc3c(c2)CCN3C(=O)C2CC2)c(C)s1,"inconclusive: 8.2 µM [inhibitor, partial curve]"
4,CC(C)(C)C(=O)NC(=S)Nc1ccccc1N1CCCC1,inactive
5,CC(=O)N/C(=N\c1nc(C)cc(C)n1)Nc1ccc2ccccc2c1,"inconclusive: 23.1 µM [activator, partial curve]"
6,C/C(=N\NC(=O)C1=NNC(=O)C1C)c1cccs1 (configuration not stated),"inconclusive: 23.1 µM [activator, partial curve]"
7,O=S1(=O)c2cccc3cccc(c23)N1Cc1ccc(-c2nnco2)cc1,"inconclusive: 18.4 µM [inhibitor, single point]"
8,CCC(=C(c1ccc(OC)cc1)c1ccc(OC)cc1)c1cn(CC(O)CN2CCN(C)CC2)c2ccccc12 (configuration not stated),"inconclusive: 32.6 µM [inhibitor, single point]"
9,CC(C(=O)N1CCCC1)N1CCN(S(=O)(=O)c2ccccc2)CC1 (configuration not stated),"inconclusive: 25.9 µM [activator, single point]"
10,CCNC(=S)N/N=C/c1cccc(OCc2c(F)cccc2Cl)c1,"inconclusive: 18.4 µM [inhibitor, single point]"
11,Cc1ccccc1N1CCN(C2CCCN(C(=O)CCc3c(C)noc3C)C2)CC1 (configuration not stated),"inconclusive: 14.6 µM [inhibitor, partial curve]"
12,CCCCn1c(SCC(=O)c2ccc3c(c2)NC(=O)CO3)nc2cc(S(N)(=O)=O)ccc21,active: 16.4 µM
13,CCOC(=O)C1CCCN(C(=O)COc2ccc(S(=O)(=O)N3CCOCC3)cc2)C1 (configuration not stated),inactive
14,CNC(C)C#Cc1ccc2oc3cccc(OC)c3c(=O)c2c1 (configuration not stated),"inconclusive: 13 µM [activator, partial curve]"
15,Nc1ccc(C(=O)NC2CCSc3ccccc32)cc1[N+](=O)[O-] (configuration not stated),"inconclusive: 2.31 µM [inhibitor, partial curve, poor fit]"
16,Cc1cc(C)cc(N2CC(C(=O)NC3CCCCC3)CC2=O)c1 (configuration not stated),"inconclusive: 18.3 µM [activator, partial curve, poor fit]"
17,CCOC(=O)c1c(NC(=O)CCC(=O)NCc2ccco2)sc2c1CCCC2,"inconclusive: 25.9 µM [inhibitor, partial curve, poor fit]"
18,CC(C)=CCN1CCN(Cc2cnc(N3CCOCC3)s2)CC1CCO (configuration not stated),"inconclusive: 8.2 µM [activator, partial curve]"
19,Cc1ccc(SCCSc2nc(N)cc(=O)[nH]2)cc1,inactive
20,N#C/C(=C(/O)COC(=O)COc1ccc(Cl)cc1)c1nc2ccccc2[nH]1,"inconclusive: 23.1 µM [activator, single point]"
21,CCN(CC)S(=O)(=O)c1ccc(NC(=O)CN(c2cccc(C)c2)S(C)(=O)=O)cc1,"inconclusive: 11.6 µM [inhibitor, partial curve, poor fit]"

# Source: PubChem BioAssay AID504467 (National Center for Advancing Translational Sciences (NCATS), 2011)
